# Experimental data: patent US8673951B2, “Isoxazoline-substituted benzamide compound and pesticide” (priority 2005, dated 2014)
# Some results were stated once for a whole list of compounds, not compound by compound. At least one compound was matched to its structure with a doubt left.
# Tested on: cabbage moth (Plutella xylostella)
# Assay: Insecticidal test against cabbage moth (Test Example 1)
# Format: in vivo
# Conditions: chemical solution 10 ppm (**); cabbage leaf dip; second instar larva; after 6 days; 25° C.
row,SMILES,insecticidal rate (rate of dead insects) [%]
1,CCN(C(=O)c1ccc(C2=NOC(c3cc(Cl)cc(Cl)c3)(C(F)(F)F)C2)cc1C)c1ncc(Cl)cn1 (stereo not drawn) [5-093],≥ 80
2,CCOCN(C(=O)c1ccc(C2=NOC(c3cc(Cl)cc(Cl)c3)(C(F)(F)F)C2)cc1C)c1ncc(Cl)cn1 (stereo not drawn) [5-095],≥ 80
3,CC(=O)OCN(C(=O)c1ccc(C2=NOC(c3cc(Cl)cc(Cl)c3)(C(F)(F)F)C2)cc1C)c1ncc(Cl)cn1 (stereo not drawn) [5-096],≥ 80
4,Cc1cc(C2=NOC(c3cc(Cl)cc(Cl)c3)(C(F)(F)F)C2)ccc1C(=O)N(CC#N)c1ncc(Cl)cn1 (stereo not drawn) [5-097],≥ 80
5,C=CCN(C(=O)c1ccc(C2=NOC(c3cc(Cl)cc(Cl)c3)(C(F)(F)F)C2)cc1C)c1ncc(Cl)cn1 (stereo not drawn) [5-098],≥ 80
6,C#CCN(C(=O)c1ccc(C2=NOC(c3cc(Cl)cc(Cl)c3)(C(F)(F)F)C2)cc1C)c1ncc(Cl)cn1 (stereo not drawn) [5-099],≥ 80
7,CCCC(=O)N(C(=O)c1ccc(C2=NOC(c3cc(Cl)cc(Cl)c3)(C(F)(F)F)C2)cc1C)c1ncc(Cl)cn1 (stereo not drawn) [5-102],≥ 80
8,Cc1cc(C2=NOC(c3cc(Cl)cc(Cl)c3)(C(F)(F)F)C2)ccc1C(=O)N(C(=O)C(C)C)c1ncc(Cl)cn1 (stereo not drawn) [5-103],≥ 80
9,Cc1cc(C2=NOC(c3cc(Cl)cc(Cl)c3)(C(F)(F)F)C2)ccc1C(=O)N(C(=O)C1CC1)c1ncc(Cl)cn1 (stereo not drawn) [5-104],≥ 80
10,Cc1cc(C2=NOC(c3cc(Cl)cc(Cl)c3)(C(F)(F)F)C2)ccc1C(=O)N(C(=O)C(C)(C)C)c1ncc(Cl)cn1 (stereo not drawn) [5-105],≥ 80
11,Cc1cc(C2=NOC(c3cc(Cl)cc(Cl)c3)(C(F)(F)F)C2)ccc1C(=O)N(C(=O)c1ccccc1)c1ncc(Cl)cn1 (stereo not drawn) [5-107],≥ 80
12,COC(=O)N(C(=O)c1ccc(C2=NOC(c3cc(Cl)cc(Cl)c3)(C(F)(F)F)C2)cc1I)c1ncc(Cl)cn1 (stereo not drawn) [5-140],≥ 80
13,Cc1cc(C2=NOC(c3cc(Cl)cc(Cl)c3)(C(F)(F)F)C2)ccc1C(=O)N(c1ncc(Cl)cn1)C(C)C (stereo not drawn) [5-141],≥ 80
14,Cc1cc(C2=NOC(c3cc(Cl)cc(Cl)c3)(C(F)(F)F)C2)ccc1C(=O)N(C(=O)CCl)c1ncc(Cl)cn1 (stereo not drawn) [5-145],≥ 80
15,CCOCC(=O)N(C(=O)c1ccc(C2=NOC(c3cc(Cl)cc(Cl)c3)(C(F)(F)F)C2)cc1C)c1ncc(Cl)cn1 (stereo not drawn) [5-146],≥ 80
16,CSCC(=O)N(C(=O)c1ccc(C2=NOC(c3cc(Cl)cc(Cl)c3)(C(F)(F)F)C2)cc1C)c1ncc(Cl)cn1 (stereo not drawn) [5-147],≥ 80
17,Cc1cc(C2=NOC(c3cc(Cl)cc(Cl)c3)(C(F)(F)F)C2)ccc1C(=O)N(C(=O)C[S+](C)[O-])c1ncc(Cl)cn1 (stereo not drawn) [5-148],≥ 80
18,CCOC(=O)C(=O)N(C(=O)c1ccc(C2=NOC(c3cc(Cl)cc(Cl)c3)(C(F)(F)F)C2)cc1C)c1ncc(Cl)cn1 (stereo not drawn) [5-149],≥ 80

# Same assay, conditions: chemical solution 100 ppm (*); cabbage leaf dip; second instar larva; after 6 days; 25° C.
row,SMILES,insecticidal rate (rate of dead insects) [%]
1,Cc1cc(C2=NOC(c3cc(Cl)cc(Cl)c3)(C(F)(F)F)C2)ccc1C(=O)N(C)c1ncc(Cl)cn1 (stereo not drawn) [5-092],≥ 80
2,COCN(C(=O)c1ccc(C2=NOC(c3cc(Cl)cc(Cl)c3)(C(F)(F)F)C2)cc1C)c1ncc(Cl)cn1 (stereo not drawn) [5-094],≥ 80
3,CCC(=O)N(C(=O)c1ccc(C2=NOC(c3cc(Cl)cc(Cl)c3)(C(F)(F)F)C2)cc1C)c1ncc(Cl)cn1 (stereo not drawn) [5-101],≥ 80
4,CC(=O)CN(C(=O)c1ccc(C2=NOC(c3cc(Cl)cc(Cl)c3)(C(F)(F)F)C2)cc1C)c1ncc(Cl)cn1 (stereo not drawn) [5-142],≥ 80
5,COC(=O)CN(C(=O)c1ccc(C2=NOC(c3cc(Cl)cc(Cl)c3)(C(F)(F)F)C2)cc1C)c1ncc(Cl)cn1 (stereo not drawn) [5-143],≥ 80
6,CSCN(C(=O)c1ccc(C2=NOC(c3cc(Cl)cc(Cl)c3)(C(F)(F)F)C2)cc1C)c1ncc(Cl)cn1 (stereo not drawn) [5-144],≥ 80
